Data as given in PubChem BioAssay AID540256 (National Center for Advancing Translational Sciences (NCATS), 2011).
The campaign covered roughly 300,000 compounds. About 3,700 (1.2%) were called active. The inconclusive results got no clear call from the source; some entries with a clear call stand among them for comparison. Calls follow the shape of the full dose curve; tested in HEK293 cells. Potencies beside an inconclusive call are fits to weak or partial responses and may not hold up.

Assay: qHTS for Inhibitors of binding or entry into cells for Lassa Virus; also: nearly all actives have a fitted effect of over 50% in size
Details: Lassa virus pseudotype entry inhibition, cell reporter; activity change, negative = inhibition: at 37.9 µM (top of the series) unless noted
% is scaled to controls: 0 for no effect and ±100 for the full control effect; potency is read from the fitted curve at half-maximal effect.

| SMILES | Potency | activity change, negative = inhibition |
| --- | --- | --- |
| CCc1cc2c(=O)n3c(nc2s1)-c1[nH]c2ccc(OC)cc2c1CC3 | inconclusive: 4.47 µM [activator, partial curve] |  |
| CCOCCN1CCN(c2nnc3n2-c2ccc(Cl)cc2C(c2ccccc2Cl)=NC3)CC1 | inconclusive: 7.08 µM [inhibitor, partial curve, poor fit] |  |
| CCOc1ccc(N(C(=O)c2snc(C(N)=O)c2N)C(C(=O)NCC2CCCO2)c2ccco2)cc1 (centres undefined) | inconclusive: 6.31 µM [inhibitor, partial curve, poor fit] |  |
| O=C1NC(=O)C(c2ccccc2Cl)=C1Nc1cccc(O)c1 | inconclusive: 12.5 µM [inhibitor, partial curve, poor fit] |  |
| CCN(c1ccccc1)S(=O)(=O)c1ccc(OC)c(NC(=O)CCc2nc3ccccc3c(=O)[nH]2)c1 |  | inactive: -21.2% |
| CC(=O)Nc1ccc(C(=O)N/C(=C/c2ccccc2)C(=O)N2CCCCC2)cc1 | inconclusive: 6.31 µM [inhibitor, full curve, poor fit] |  |
| Cn1c(C(=O)NCC2CCCO2)cc2oc3ccccc3c21 (centres undefined) | inconclusive: 3.16 µM [activator, single point] |  |
| OC(CNCc1ccccc1)c1ccccc1 (centres undefined) | inconclusive: 1.12 µM [activator, single point] |  |
| CCOC(=O)N1CCC(=NNc2ccc(S(=O)(=O)N3CCOCC3)cc2[N+](=O)[O-])CC1 | inconclusive: 22.4 µM [inhibitor, single point] |  |
| CCc1ccc(CN(C)C(=O)CCc2nc3ccccc3n(-c3ccc(OC)cc3)c2=O)cc1 | active: 14.1 µM |  |
| CN1CCCCCC1=Nc1ccc([N+](=O)[O-])cc1 | inconclusive: 1.41 µM [activator, partial curve, poor fit] |  |
| COc1cc(/C=N/NC(=O)c2cccnc2)ccc1OS(=O)(=O)c1cc(C)ccc1C | inconclusive: 10 µM [inhibitor, single point] |  |
| Cc1ccccc1C(=O)Nn1cnc2ccccc2c1=O | inconclusive: 5.62 µM [activator, single point] |  |
| Cc1cccc(NC(=O)CCc2nc3sc4c(c3c(=O)[nH]2)CCCC4)c1 | inconclusive: 11.2 µM [inhibitor, single point] |  |
| N#C/C(=C\c1ccncc1)c1ccccn1 |  | inactive: -26.3% |
| O=C(CCn1cccc1)Nc1cccc(F)c1 |  | inactive: 5.29% |
| COc1ccc(C2C(C(=O)Nc3ccc(C)cc3C)=C(C)Nc3nc(SC)nn32)cc1OC (centres undefined) | inconclusive: 5.62 µM [inhibitor, single point] |  |
| O=C1c2cccc3c([N+](=O)[O-])ccc(c23)C(=O)N1c1ccccn1 | inconclusive: 12.6 µM [inhibitor, single point] |  |
| O=C(c1cccc(F)c1)N1CCN(C2CCCCC2)CC1 |  | inactive: 6.24% |
| Cc1cc(C(=O)COc2ccc(Cl)cc2Br)c(C)n1C | inconclusive: 4.47 µM [inhibitor, full curve, poor fit] |  |
| COc1ccc(S(=O)(=O)N(CC(=O)N2CCN(c3ccccc3OC)CC2)c2ccccc2)cc1 | inconclusive: 12.6 µM [inhibitor, partial curve, poor fit] |  |
| CCN=C1SC(CC(=O)Nc2ccc(N3CCOCC3)cc2)C(=O)N1CC (centres undefined) | inconclusive: 10 µM [inhibitor, partial curve, poor fit] |  |
| CN1c2ccccc2N(C)C1(C)c1cccc2ccccc12 | inconclusive: 12.6 µM [inhibitor, single point] |  |

Among those listed so far, these contain an aryl methoxy group.

| SMILES | Potency | activity change, negative = inhibition |
| --- | --- | --- |
| CCc1cc2c(=O)n3c(nc2s1)-c1[nH]c2ccc(OC)cc2c1CC3 | inconclusive: 4.47 µM [activator, partial curve] |  |
| CCN(c1ccccc1)S(=O)(=O)c1ccc(OC)c(NC(=O)CCc2nc3ccccc3c(=O)[nH]2)c1 |  | inactive: -21.2% |
| CCc1ccc(CN(C)C(=O)CCc2nc3ccccc3n(-c3ccc(OC)cc3)c2=O)cc1 | active: 14.1 µM |  |
| COc1cc(/C=N/NC(=O)c2cccnc2)ccc1OS(=O)(=O)c1cc(C)ccc1C | inconclusive: 10 µM [inhibitor, single point] |  |
| COc1ccc(C2C(C(=O)Nc3ccc(C)cc3C)=C(C)Nc3nc(SC)nn32)cc1OC (centres undefined) | inconclusive: 5.62 µM [inhibitor, single point] |  |
| COc1ccc(S(=O)(=O)N(CC(=O)N2CCN(c3ccccc3OC)CC2)c2ccccc2)cc1 | inconclusive: 12.6 µM [inhibitor, partial curve, poor fit] |  |

Next part:

| SMILES | Potency | activity change, negative = inhibition |
| --- | --- | --- |
| Fc1ccc(-n2c(-c3ccco3)nc3nc4ccccc4nc32)cc1 |  | inactive: 2.93% |
| O=C(NC1=NCCS1)c1ccccc1 | inconclusive: 35.5 µM [activator, single point] |  |
| CS(=O)(=O)N(CC(=O)N1CCN(Cc2ccccc2)CC1)Cc1ccccc1 | inconclusive: 2.31 µM [inhibitor, single point] |  |
| O=C(CSc1nc2ccccc2c(=O)n1-c1ccc(F)c(Cl)c1)Nc1cccc(S(=O)(=O)N2CCOCC2)c1 | inconclusive: 1.3 µM [inhibitor, partial curve, poor fit] |  |
| COc1ccc(NC(=O)C2CCN(S(=O)(=O)c3cn(C)cn3)CC2)cc1Cl |  | inactive: 18.3% [at 46.1 µM] |
| CC(C)C(=O)Nc1nnc(S(=O)(=O)N(C)Cc2ccc(F)cc2)s1 |  | inactive: 12.5% [at 46.1 µM] |
| CN(C)CCNC(=O)c1cccc(S(=O)(=O)Nc2ccc(F)cc2)c1 | inconclusive: 35.5 µM [activator, partial curve, poor fit] |  |
| CCOc1ccc(NC(=NCc2ccc3c(c2)OCO3)SC2CC(=O)N(c3ccc(C(=O)O)cc3)C2=O)cc1 (centres undefined) | inconclusive: 17.8 µM [inhibitor, single point] |  |
| C/C(=N\Nc1cccc([N+](=O)[O-])c1)c1ccccc1O |  | inactive: 10.5% |
| Cc1cc2oc(=O)cc(CN3CCN(S(=O)(=O)c4cccs4)CC3)c2cc1C | active: 14.1 µM |  |
| CCOc1ccc(CCNC(=O)COC(=O)CNC(=O)c2ccc(Br)o2)cc1OCC |  | inactive: 9.21% |
| CC1CN(Cc2ccc(Cl)cc2Cl)CC(C)O1 (centres undefined) |  | inactive: 12.5% |
| Cc1cc(N2CCCCC2)c(F)cc1[N+](=O)[O-] |  | inactive: 11.7% |
| CC1(C)Cc2c(ccc3ccccc23)/C(=C/C(=O)N2CCCCC2)N1 |  | inactive: -8.54% |
| O=C(COc1ccccc1)Nc1ccccc1C(=O)NCc1ccco1 | inconclusive: 3.66 µM [activator, full curve, poor fit] |  |
| Cc1cc(C)cc(N=Cc2ccc([N+](=O)[O-])s2)c1 | inconclusive: 12.6 µM [inhibitor, single point] |  |
| O=C(/C=C\c1ccco1)c1ccc(NC(=O)c2ccco2)cc1 | inconclusive: 35.5 µM [inhibitor, single point] |  |
| Cc1ccc2c(c1)cc(CN(CCc1ccccc1)C(=O)N1CCOCC1)c1nnnn12 | inconclusive: 4.11 µM [inhibitor, partial curve, poor fit] |  |
| O=C(Nc1ccc(Br)cc1)c1ccc(F)c(S(=O)(=O)NC2CCCCCC2)c1 | inconclusive: 2.51 µM [inhibitor, full curve, poor fit] |  |
| C/C(CC(=O)Nc1cc(C)cc(C)c1)=N\NC(=O)c1ccccn1 |  | inactive: -2.56% |
| c1ccc(N2CCN(c3nc4ccccc4n4nnnc34)CC2)cc1 |  | inactive: -8.69% |
| O=C(CSc1ncnc2sccc12)N1CCN(C(=O)c2cccs2)CC1 |  | inactive: 21.3% |
| O=C(N/N=C/c1cccnc1)c1cc(C2CC2)nc2ccccc12 | inconclusive: 7.08 µM [inhibitor, single point] |  |

| SMILES | Potency | activity change, negative = inhibition |
| --- | --- | --- |
| Cc1ccc(NC(=O)Cn2c(O)c(N=NC(=O)c3cc4ccccc4cc3O)c3ccccc32)cc1 | inconclusive: 8.91 µM [inhibitor, partial curve] |  |
| Cc1cccc(C(=O)N2CCCC(Nc3ccc(F)c(F)c3)C2)n1 (centres undefined) |  | inactive: -0.399% |
| COc1ccc(C)cc1NC(=O)COc1cc(=O)n(C)c2ccccc12 | inconclusive: 14.1 µM [activator, single point] |  |
| O=C(NC(=S)Nc1ccc(N2CCCCC2)c(Cl)c1)c1cccs1 | inconclusive: 2.24 µM [inhibitor, partial curve, poor fit] |  |
| COc1ccc(NC(=O)c2cc(-c3ccccc3Cl)on2)cc1OC |  | inactive: 4.68% [at 46.1 µM] |
| O=C(CSc1oc(-c2ccccc2)nc1S(=O)(=O)c1ccc(Br)cc1)c1ccccc1 |  | inactive: -22.7% [at 46.1 µM] |
| Cc1nn(Cc2cccc(C(=O)Nc3ccn(Cc4c(F)c(F)cc(F)c4F)n3)c2)c(C)c1[N+](=O)[O-] | inconclusive: 29.1 µM [inhibitor, single point] |  |
| CC(C)Sc1cc(N2CCOCC2)nc(-c2ccccc2)n1 |  | inactive: 2.26% |
| Cc1ccc(NC(=O)[C@@H]2CCCN2S(=O)(=O)c2ccc(Cl)cc2)cc1 | inconclusive: 3.98 µM [inhibitor, partial curve, poor fit] |  |
| CCOC(=O)c1cnc2cc(F)c(F)cc2c1N1CCOCC1 | inconclusive: 1.58 µM [inhibitor, partial curve, poor fit] |  |
| O=C(Nc1ccc(Cl)cn1)Nc1ccccc1Cl | inconclusive: 6.31 µM [activator, single point] |  |
| O=C(Nc1ccccc1N1CCCCC1)c1ccc(-c2cccc(Cl)c2)o1 |  | inactive: 6.52% |
| O=C(Nc1ccccc1)N1CCCC(c2nc(-c3ccc(F)cc3)no2)C1 (centres undefined) |  | inactive: 7.08% |
| CCCNC(=O)OC[C@H]1O[C@H](CCO/N=C/c2ccc(C(=O)N3[C@H](c4ccc(C)cc4)[C@@H](C)CC[C@H]3C(=O)OC)cc2)C=C[C@@H]1Oc1ccc(OC)cc1 | inconclusive: 6.51 µM [inhibitor, single point] |  |
| O=C(N/N=C/c1ccc[nH]1)c1ccc(COc2cccc3cccnc23)cc1 | inconclusive: 1.12 µM [inhibitor, full curve, poor fit] |  |
| CN1c2ccsc2C(O)=C(C(=O)Nc2ccccc2)S1(=O)=O |  | inactive: 17.8% |
| Cc1ccccc1NC(=S)NNC(=O)c1ccco1 |  | inactive: 25.5% [at 46.1 µM] |
| COc1ccc(Cc2nc3ccc(C(=O)N(C)CCO)cc3o2)cc1 | inconclusive: 1.26 µM [inhibitor, full curve, poor fit] |  |
| CSCCC(Nc1ccc(S(=O)(=O)N2CCOCC2)cc1[N+](=O)[O-])C(=O)OCC(=O)N(C(C)C)C(C)C (centres undefined) | inconclusive: 0.282 µM [inhibitor, full curve, poor fit] |  |
| Cc1cc(-c2ccc(C)c(S(=O)(=O)Nc3cccc(C)n3)c2)on1 | inconclusive: 12.6 µM [activator, single point] |  |
| C=CCN(c1ccccc1)S(=O)(=O)c1cccc(C(=O)Oc2ccc3c(C)cc(=O)oc3c2)c1 |  | inactive: 4.22% |
| Cc1ccc(-n2nc(CO)c(C(=O)NCc3ccccn3)n2)cc1 |  | inactive: -10.7% [at 46.1 µM] |
| COc1ccc(NC(=S)NNc2ccc(C(=O)O)cc2)cc1 |  | inactive: 15.9% [at 46.1 µM] |
